Data: the supplement of paper PMC8728848
The other results are listed elsewhere or left out.

Key:
Assay in all cases: glycan array binding signal (z-score within array); higher = stronger binding
Conditions in all cases: glycan notation: IUPAC condensed, linker removed
[1] = molecular target: Gal(b1-3)GlcNAc(b1-3)Gal(b1-4)GlcNAc(b1-2)Man(a1-3)[Gal(b1-3)GlcNAc(b1-3)Gal(b1-4)GlcNAc(b1-2)Man(a1-6)]Man(b1-4)GlcNAc(b1-4)GlcNAc
Procedure, shortened: (§1)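 Glycan array data came from 3228 arrays in the Consortium for Functional Glycomics database, and only arrays with an available protein sequence were kept. Glycan names were put into IUPAC-condensed notation, and columns mapping to the same glycan were averaged. The binding signal is a within-array Z-score, averaged across arrays of one protein sequence run at different concentrations or buffers and across linkers. A negative Z-score can be read as non-binding.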

[2] = molecular target: Gal(b1-3)GlcNAc(b1-3)Gal(b1-4)GlcNAc(b1-2)[Gal(b1-3)GlcNAc(b1-3)Gal(b1-4)GlcNAc(b1-6)]Man(a1-6)[Gal(b1-3)GlcNAc(b1-3)Gal(b1-4)GlcNAc(b1-2)Man(a1-3)]Man(b1-4)GlcNAc(b1-4)[Fuc(a1-6)]GlcNAc
Procedure, shortened: as §1

[3] = molecular target: Gal(b1-3)GlcNAc(b1-3)Gal(b1-4)GlcNAc(b1-3)Gal(b1-4)GlcNAc(b1-2)[Gal(b1-3)GlcNAc(b1-3)Gal(b1-4)GlcNAc(b1-3)Gal(b1-4)GlcNAc(b1-6)]Man(a1-6)[Gal(b1-3)GlcNAc(b1-3)Gal(b1-4)GlcNAc(b1-3)Gal(b1-4)GlcNAc(b1-2)Man(a1-3)]Man(b1-4)GlcNAc(b1-4)[Fuc(a1-6)]GlcNAc
Procedure, shortened: as §1

[4] = molecular target: Gal(b1-3)GlcNAc(b1-3)Gal(b1-4)GlcNAc(b1-6)[Gal(b1-3)GlcNAc(b1-3)]Gal(b1-4)Glc
Procedure, shortened: as §1

[5] = molecular target: Gal(b1-3)GlcNAc(b1-3)Gal(b1-4)[Fuc(a1-3)]GlcNAc
Procedure, shortened: as §1

[6] = molecular target: Gal(b1-3)GlcNAc(b1-3)Gal(b1-4)[Fuc(a1-3)]GlcNAc(b1-6)[Gal(b1-3)GlcNAc(b1-3)]Gal(b1-4)Glc
Procedure, shortened: as §1

[7] = molecular target: Gal(b1-3)GlcNAc(b1-3)GalNAc
Procedure, shortened: as §1

[8] = molecular target: Gal(b1-3)GlcNAc(b1-6)Gal(b1-4)GlcNAc
Procedure, shortened: as §1

[9] = molecular target: Gal(b1-3)GlcNAc(b1-6)GalNAc
Procedure, shortened: as §1

[10] = molecular target: Gal(b1-3)GlcNAc(b1-6)[Gal(b1-3)]GalNAc
Procedure, shortened: as §1

Gal(b1-3)GlcNAc6S = molecular target: Gal(b1-3)GlcNAc6S
Procedure, shortened: as §1

[11] = molecular target: Gal(b1-3)[Fuc(a1-4)]GlcNAc
Procedure, shortened: as §1

[12] = molecular target: Gal(b1-3)[Fuc(a1-4)]GlcNAc(b1-2)Man
Procedure, shortened: as §1

[13] = molecular target: Gal(b1-3)[Fuc(a1-4)]GlcNAc(b1-2)Man(a1-3)[Gal(b1-3)[Fuc(a1-4)]GlcNAc(b1-2)Man(a1-6)]Man(b1-4)GlcNAc(b1-4)[Fuc(a1-6)]GlcNAc
Procedure, shortened: as §1

[14] = molecular target: Gal(b1-3)[Fuc(a1-4)]GlcNAc(b1-3)Gal(b1-3)[Fuc(a1-4)]GlcNAc
Procedure, shortened: as §1

[15] = molecular target: Gal(b1-3)[Fuc(a1-4)]GlcNAc(b1-3)Gal(b1-4)[Fuc(a1-3)]GlcNAc
Procedure, shortened: as §1

[16] = molecular target: Gal(b1-3)[Fuc(a1-4)]GlcNAc(b1-6)GalNAc
Procedure, shortened: as §1

[17] = molecular target: Gal(b1-3)[GlcNAc(b1-6)]GalNAc
Procedure, shortened: as §1

[18] = molecular target: Gal(b1-3)[Neu5Ac(a2-6)]GalNAc
Procedure, shortened: as §1

[19] = molecular target: Gal(b1-3)[Neu5Ac(a2-6)]GlcNAc(b1-4)Gal(b1-4)Glc
Procedure, shortened: as §1

[20] = molecular target: Gal(b1-3)[Neu5Ac(b2-6)]GalNAc
Procedure, shortened: as §1

Gal(b1-4)Gal = molecular target: Gal(b1-4)Gal
Procedure, shortened: as §1

[21] = molecular target: Gal(b1-4)GalNAc(a1-3)[Fuc(a1-2)]Gal(b1-4)GlcNAc
Procedure, shortened: as §1

[22] = molecular target: Gal(b1-4)GalNAc(b1-3)[Fuc(a1-2)]Gal(b1-4)GlcNAc
Procedure, shortened: as §1

Gal(b1-4)Glc = molecular target: Gal(b1-4)Glc
Procedure, shortened: as §1

Gal(b1-4)Glc6S = molecular target: Gal(b1-4)Glc6S
Procedure, shortened: as §1

Gal(b1-4)GlcNAc = molecular target: Gal(b1-4)GlcNAc
Procedure, shortened: as §1

[23] = molecular target: Gal(b1-4)GlcNAc(a1-6)Gal(b1-4)GlcNAc
Procedure, shortened: as §1

Gal(b1-4)GlcNAc(b1-2)Man = molecular target: Gal(b1-4)GlcNAc(b1-2)Man
Procedure, shortened: as §1

[24] = molecular target: Gal(b1-4)GlcNAc(b1-2)Man(a1-3)Man(b1-4)GlcNAc(b1-4)GlcNAc
Procedure, shortened: as §1

[25] = molecular target: Gal(b1-4)GlcNAc(b1-2)Man(a1-3)[Gal(b1-4)GlcNAc(b1-2)Man(a1-6)]Man(b1-4)GlcNAc(b1-4)GlcNAc
Procedure, shortened: as §1

[26] = molecular target: Gal(b1-4)GlcNAc(b1-2)Man(a1-3)[Gal(b1-4)GlcNAc(b1-2)Man(a1-6)]Man(b1-4)GlcNAc(b1-4)[Fuc(a1-6)]GlcNAc
Procedure, shortened: as §1

[27] = molecular target: Gal(b1-4)GlcNAc(b1-2)Man(a1-3)[Gal(b1-4)GlcNAc(b1-2)Man(a1-6)][Gal(b1-4)GlcNAc(b1-4)]Man(b1-4)GlcNAc(b1-4)[Fuc(a1-6)]GlcNAc
Procedure, shortened: as §1

[28] = molecular target: Gal(b1-4)GlcNAc(b1-2)Man(a1-3)[Gal(b1-4)GlcNAc(b1-2)Man(a1-6)][GlcNAc(b1-4)]Man(b1-4)GlcNAc(b1-4)[Fuc(a1-6)]GlcNAc
Procedure, shortened: as §1

[29] = molecular target: Gal(b1-4)GlcNAc(b1-2)Man(a1-3)[GlcNAc(b1-2)Man(a1-6)]Man(b1-4)GlcNAc(b1-4)GlcNAc
Procedure, shortened: as §1

[30] = molecular target: Gal(b1-4)GlcNAc(b1-2)Man(a1-3)[GlcNAc(b1-4)][Gal(b1-4)GlcNAc(b1-2)Man(a1-6)]Man(b1-4)GlcNAc(b1-4)GlcNAc
Procedure, shortened: as §1

[31] = molecular target: Gal(b1-4)GlcNAc(b1-2)Man(a1-3)[Man(a1-6)]Man(b1-4)GlcNAc(b1-4)GlcNAc
Procedure, shortened: as §1

[32] = molecular target: Gal(b1-4)GlcNAc(b1-2)Man(a1-6)Man(b1-4)GlcNAc(b1-4)GlcNAc
Procedure, shortened: as §1

B1: LlpA (Arthrobacter sp) (protein)
chain: MGSSHHHHHHSSGLVPRGSHMTLHPETALRPGAAATSPNSRYRLLYQTDGNLVLYGPDGPLWDSGTNGHGAGACIMQADGNLVLYGPNDEYVWDTETDNNPGSRLVIQDDGNAVIYRPDGSPLWATETCQPPGSADSHVLQSGSTLTPTHGIRSANGLYGLLYQTDGNLVFYGPDGPLWDSGTNGRGAGACIMQPDGNLVLYGPHDEYVWDTETDNNPGSRLVIQDDGNAVIYRPDGNPTWVTGTH
[1]
  glycan array binding signal (z-score): 0.051
[2]
  glycan array binding signal (z-score): 1.06
[3]
  glycan array binding signal (z-score): 0.626
[4]
  glycan array binding signal (z-score): 0.713
[5]
  glycan array binding signal (z-score): -0.104
[6]
  glycan array binding signal (z-score): -0.389
[7]
  glycan array binding signal (z-score): -0.118
[8]
  glycan array binding signal (z-score): 1.03
[9]
  glycan array binding signal (z-score): -0.718
[10]
  glycan array binding signal (z-score): -0.823
Gal(b1-3)GlcNAc6S
  glycan array binding signal (z-score): -0.465
[11]
  glycan array binding signal (z-score): -0.367
[12]
  glycan array binding signal (z-score): 0.309
[13]
  glycan array binding signal (z-score): 0.672
[14]
  glycan array binding signal (z-score): -0.753
[15]
  glycan array binding signal (z-score): -0.845
[16]
  glycan array binding signal (z-score): 0.957
[17]
  glycan array binding signal (z-score): -0.25
[18]
  glycan array binding signal (z-score): -0.937
[19]
  glycan array binding signal (z-score): -0.842
[20]
  glycan array binding signal (z-score): -0.148
Gal(b1-4)Gal
  glycan array binding signal (z-score): 1.03
[21]
  glycan array binding signal (z-score): -0.375
[22]
  glycan array binding signal (z-score): -0.494
Gal(b1-4)Glc
  glycan array binding signal (z-score): -0.295
Gal(b1-4)Glc6S
  glycan array binding signal (z-score): 0.128
Gal(b1-4)GlcNAc
  glycan array binding signal (z-score): -0.336
[23]
  glycan array binding signal (z-score): -0.48
Gal(b1-4)GlcNAc(b1-2)Man
  glycan array binding signal (z-score): -0.011
[24]
  glycan array binding signal (z-score): 0.961
[25]
  glycan array binding signal (z-score): -0.345
[26]
  glycan array binding signal (z-score): 1.04
[27]
  glycan array binding signal (z-score): -1.07
[28]
  glycan array binding signal (z-score): -1.19
[29]
  glycan array binding signal (z-score): -1.68
[30]
  glycan array binding signal (z-score): -1.42
[31]
  glycan array binding signal (z-score): -0.891
[32]
  glycan array binding signal (z-score): 0.43
